Results are given in words; binding and its absence hold for the method and conditions named. Binding seen in cells or lysates may run through a third protein. Some binding calls cover weakened binding; strength is not graded here.

The chains behind the UniProt entries cited, without tags or fusion partners.
UniProt P54198: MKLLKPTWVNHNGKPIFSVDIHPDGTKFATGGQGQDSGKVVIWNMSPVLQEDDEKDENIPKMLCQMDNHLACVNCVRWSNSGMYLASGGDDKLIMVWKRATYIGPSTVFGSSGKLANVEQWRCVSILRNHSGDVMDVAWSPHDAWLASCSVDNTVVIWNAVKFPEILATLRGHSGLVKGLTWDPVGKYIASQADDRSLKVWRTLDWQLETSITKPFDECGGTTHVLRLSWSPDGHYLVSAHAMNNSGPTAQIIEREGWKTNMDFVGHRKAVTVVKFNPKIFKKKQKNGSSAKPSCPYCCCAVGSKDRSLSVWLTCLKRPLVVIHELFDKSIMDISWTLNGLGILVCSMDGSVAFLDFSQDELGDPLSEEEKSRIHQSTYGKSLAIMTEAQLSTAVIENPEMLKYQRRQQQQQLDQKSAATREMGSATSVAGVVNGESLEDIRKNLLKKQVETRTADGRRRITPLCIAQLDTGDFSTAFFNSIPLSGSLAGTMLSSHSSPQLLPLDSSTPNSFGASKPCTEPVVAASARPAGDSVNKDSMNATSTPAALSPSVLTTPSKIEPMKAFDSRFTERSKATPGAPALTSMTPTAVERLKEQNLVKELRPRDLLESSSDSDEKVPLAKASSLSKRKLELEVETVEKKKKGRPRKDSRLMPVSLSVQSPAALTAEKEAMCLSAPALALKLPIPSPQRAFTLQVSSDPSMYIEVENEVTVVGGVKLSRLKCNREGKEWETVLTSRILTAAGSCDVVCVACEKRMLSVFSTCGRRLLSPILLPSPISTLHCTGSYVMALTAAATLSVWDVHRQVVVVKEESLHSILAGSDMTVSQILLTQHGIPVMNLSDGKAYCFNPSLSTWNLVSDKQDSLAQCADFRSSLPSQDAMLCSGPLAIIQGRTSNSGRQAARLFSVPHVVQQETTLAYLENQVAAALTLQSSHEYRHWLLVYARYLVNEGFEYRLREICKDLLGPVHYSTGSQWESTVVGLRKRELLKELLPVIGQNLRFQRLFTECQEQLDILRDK
UniProt Q9NPG3: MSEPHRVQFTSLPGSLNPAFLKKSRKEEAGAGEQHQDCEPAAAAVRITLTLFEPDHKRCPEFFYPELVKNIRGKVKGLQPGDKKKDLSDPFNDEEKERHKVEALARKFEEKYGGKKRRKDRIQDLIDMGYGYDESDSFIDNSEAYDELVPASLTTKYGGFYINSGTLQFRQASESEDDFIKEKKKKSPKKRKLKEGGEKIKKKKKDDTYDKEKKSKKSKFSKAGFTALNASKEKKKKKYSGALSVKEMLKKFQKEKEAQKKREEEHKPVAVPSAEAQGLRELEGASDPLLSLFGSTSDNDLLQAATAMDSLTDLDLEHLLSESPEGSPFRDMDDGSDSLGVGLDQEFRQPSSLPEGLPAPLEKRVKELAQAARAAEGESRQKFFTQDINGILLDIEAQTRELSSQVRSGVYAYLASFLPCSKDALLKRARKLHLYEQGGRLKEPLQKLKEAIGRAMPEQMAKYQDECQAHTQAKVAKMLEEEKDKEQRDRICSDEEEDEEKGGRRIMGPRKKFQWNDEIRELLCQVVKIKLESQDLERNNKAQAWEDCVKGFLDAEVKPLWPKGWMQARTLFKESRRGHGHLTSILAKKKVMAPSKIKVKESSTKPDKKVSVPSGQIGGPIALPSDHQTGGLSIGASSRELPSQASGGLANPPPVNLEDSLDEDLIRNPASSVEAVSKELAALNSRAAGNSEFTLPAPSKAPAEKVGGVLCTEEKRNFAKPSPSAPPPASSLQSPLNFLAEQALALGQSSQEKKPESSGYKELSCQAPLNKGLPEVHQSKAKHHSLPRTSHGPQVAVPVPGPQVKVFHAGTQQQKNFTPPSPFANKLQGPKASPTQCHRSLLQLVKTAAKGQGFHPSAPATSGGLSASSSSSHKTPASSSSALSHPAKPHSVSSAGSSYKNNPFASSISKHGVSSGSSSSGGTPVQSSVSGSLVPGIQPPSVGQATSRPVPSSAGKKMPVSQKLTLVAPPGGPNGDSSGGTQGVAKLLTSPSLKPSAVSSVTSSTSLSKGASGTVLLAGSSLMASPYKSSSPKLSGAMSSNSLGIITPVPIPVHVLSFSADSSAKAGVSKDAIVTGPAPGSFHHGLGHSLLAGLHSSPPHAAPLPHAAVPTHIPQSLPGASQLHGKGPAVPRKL

The target of the assay is Histone cell cycle regulator A (HIRA) (human (endogenous in K562)) (UniProt P54198). The assay can be described thus: co-IP; endogenous HIRA immunoprecipitated from K562 whole cell lysate in NETN buffer (20 mM Tris-HCl pH 7.5, 100 mM NaCl, 1 mM EDTA, 0.1% Nonidet P-40), protein G agarose beads, eluted in 2x Laemmli dye; Western blot; IgG control.

On to UBN1 (from UniProt Q9NPG3 1-1134), for which the binding result was “binds”.

For the origin of these results see article PMC13226233.
